## Cleaved PARP in drug-treated melanoma cells

From a melanoma drug combination screen (doi:10.1371/journal.pone.0140310); values rounded.

Every entry is a combination with gemcitabine at 2 nM: Nc1ccn([C@@H]2O[C@H](CO)[C@@H](O)C2(F)F)c(=O)n1

Drugs:
etoposide, 100 nM: COc1cc([C@@H]2c3cc4c(cc3[C@@H](O[C@@H]3O[C@@H]5CO[C@@H](C)O[C@H]5[C@H](O)[C@H]3O)[C@H]3COC(=O)[C@H]23)OCO4)cc(OC)c1O
MK-2206, 2000 nM: NC1(c2ccc(-c3nc4ccn5c(=O)[nH]nc5c4cc3-c3ccccc3)cc2)CCC1
lenalidomide, 5000 nM: Nc1cccc2c1CN(C1CCC(=O)NC1=O)C2=O (centres undefined)
perifosine, 2000 nM: CCCCCCCCCCCCCCCCCCOP(=O)([O-])OC1CC[N+](C)(C)CC1
darinaparsin, 2000 nM: C[As](C)SC[C@H](NC(=O)CC[C@H](N)C(=O)O)C(=O)NCC(=O)O
STA-4783, 30 nM: CN(NC(=O)CC(=O)NN(C)C(=S)c1ccccc1)C(=S)c1ccccc1
NVP-TAE684, 400 nM: COc1cc(N2CCC(N3CCN(C)CC3)CC2)ccc1Nc1ncc(Cl)c(Nc2ccccc2S(=O)(=O)C(C)C)n1
KU-0063794, 100 nM: COc1ccc(-c2ccc3c(N4CCOCC4)nc(N4C[C@@H](C)O[C@@H](C)C4)nc3n2)cc1CO
palbociclib, 200 nM: CC(=O)c1c(C)c2cnc(Nc3ccc(N4CCNCC4)cn3)nc2n(C2CCCC2)c1=O
erlotinib, 4000 nM: C#Cc1cccc(Nc2ncnc3cc(OCCOC)c(OCCOC)cc23)c1
FK866, 50 nM: O=C(/C=C/c1cccnc1)NCCCCC1CCN(C(=O)c2ccccc2)CC1
BI-D1870, 1000 nM: CC(C)CCN1c2nc(Nc3cc(F)c(O)c(F)c3)ncc2N(C)C(=O)C1C (centres undefined)
vatalanib, 10000 nM: Clc1ccc(Nc2nnc(Cc3ccncc3)c3ccccc23)cc1
MK-1775, 100 nM: C=CCn1c(=O)c2cnc(Nc3ccc(N4CCN(C)CC4)cc3)nc2n1-c1cccc(C(C)(C)O)n1
U73122, 2000 nM: COc1ccc2c(c1)CCC1C2CCC2(C)C(NCCCCCCN3C(=O)C=CC3=O)CCC12 (centres undefined)
dovitinib, 500 nM: CN1CCN(c2ccc3nc(-c4c(N)c5c(F)cccc5[nH]c4=O)[nH]c3c2)CC1
pioglitazone, 10000 nM: CCc1ccc(CCOc2ccc(CC3SC(=O)NC3=O)cc2)nc1 (centres undefined)
decitabine, 500 nM: Nc1ncn([C@H]2C[C@H](O)[C@@H](CO)O2)c(=O)n1
bortezomib, 5 nM: CC(C)C[C@H](NC(=O)[C@H](Cc1ccccc1)NC(=O)c1cnccn1)B(O)O
LFM-A13, 10000 nM: C/C(O)=C(\C#N)C(=O)Nc1cc(Br)ccc1Br
everolimus, 100 nM: CO[C@H]1C[C@@H]2CC[C@@H](C)[C@@](O)(O2)C(=O)C(=O)N2CCCC[C@H]2C(=O)O[C@H]([C@H](C)C[C@@H]2CC[C@@H](OCCO)[C@H](OC)C2)CC(=O)[C@H](C)/C=C(\C)[C@@H](O)[C@@H](OC)C(=O)[C@H](C)C[C@H](C)/C=C/C=C/C=C/1C
lapatinib, 4000 nM: CS(=O)(=O)CCNCc1ccc(-c2ccc3ncnc(Nc4ccc(OCc5cccc(F)c5)c(Cl)c4)c3c2)o1
enzastaurin, 4000 nM: Cn1cc(C2=C(c3cn(C4CCN(Cc5ccccn5)CC4)c4ccccc34)C(=O)NC2=O)c2ccccc21
vorinostat, 400 nM: O=C(CCCCCCC(=O)Nc1ccccc1)NO
PLX4720, 400 nM: CCCS(=O)(=O)Nc1ccc(F)c(C(=O)c2c[nH]c3ncc(Cl)cc23)c1F
VX-702, 2000 nM: NC(=O)c1ccc(N(C(N)=O)c2c(F)cccc2F)nc1-c1ccc(F)cc1F
SNS-314, 4 nM: O=C(Nc1cccc(Cl)c1)Nc1ncc(CCNc2ncnc3ccsc23)s1
vincristine, 0.5 nM: CC[C@]1(O)C[C@H]2CN(CCc3c([nH]c4ccccc34)[C@@](C(=O)OC)(c3cc4c(cc3OC)N(C=O)[C@H]3[C@@](O)(C(=O)OC)[C@H](OC(C)=O)[C@]5(CC)C=CCN6CC[C@]43[C@@H]65)C2)C1
ABT-263, 2000 nM: CC1(C)CCC(c2ccc(Cl)cc2)=C(CN2CCN(c3ccc(C(=O)NS(=O)(=O)c4ccc(N[C@H](CCN5CCOCC5)CSc5ccccc5)c(S(=O)(=O)C(F)(F)F)c4)cc3)CC2)C1
L-779450, 1000 nM: Oc1cc(-c2nc(-c3ccccc3)[nH]c2-c2ccncc2)ccc1Cl
KU-55933, 5000 nM: O=c1cc(-c2cccc3c2Sc2ccccc2S3)oc(N2CCOCC2)c1
NVP-BEZ235, 20 nM: Cn1c(=O)n(-c2ccc(C(C)(C)C#N)cc2)c2c3cc(-c4cnc5ccccc5c4)ccc3ncc21
tamatinib, 2000 nM: COc1cc(Nc2ncc(F)c(Nc3ccc4c(n3)NC(=O)C(C)(C)O4)n2)cc(OC)c1OC
PF-04217903, 5000 nM: OCCn1cc(-c2cnc3nnn(Cc4ccc5ncccc5c4)c3n2)cn1
GSK0660, 5000 nM: COC(=O)c1sccc1S(=O)(=O)Nc1ccc(Nc2ccccc2)cc1OC

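Human melanoma cell lines in 1,536-well plates were treated with a pair of drugs for 72 h, then fixed, stained and imaged. The read-out is the fraction of cleaved-PARP-positive nuclei, in % of that fraction in the DMSO control; 200 means twice the control level of this apoptosis marker. Concentrations were fixed for each drug; these are the higher of two levels. No replicate spread is given; individual values may be noisy. The marker varies much from line to line, for technical or biological reasons.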 This is part of the screen, not chosen by result. An entry leaves out what has no value listed here.

- dovitinib | A101D: 117; SK-MEL-5: 194; SK-MEL-28: 36.9
- SNS-314 | A101D: 357; SK-MEL-5: 116; SK-MEL-28: 126
- STA-4783 | A101D: 472; SK-MEL-5: 87.6; SK-MEL-28: 505
- ABT-263 | A101D: 782; SK-MEL-5: 293; SK-MEL-28: 385
- vatalanib | A101D: 199; SK-MEL-5: 221; SK-MEL-28: 168
- vincristine | A101D: 135; SK-MEL-5: 78.3; SK-MEL-28: 179
- BI-D1870 | A101D: 185; SK-MEL-5: 183; SK-MEL-28: 63.1
- LFM-A13 | A101D: 194; SK-MEL-5: 76.7; SK-MEL-28: 92.1
- erlotinib | A101D: 125; SK-MEL-5: 215; SK-MEL-28: 153
- VX-702 | A101D: 134; SK-MEL-5: 90.2; SK-MEL-28: 114
- darinaparsin | A101D: 38.9; SK-MEL-5: 87.2; SK-MEL-28: 105
- PLX4720 | A101D: 109; SK-MEL-5: 333; SK-MEL-28: 68.7
- MK-1775 | A101D: 178; SK-MEL-5: 290; SK-MEL-28: 102
- lenalidomide | A101D: 96.3; SK-MEL-5: 128; SK-MEL-28: 52.1
- decitabine | A101D: 88.9; SK-MEL-5: 146; SK-MEL-28: 69.4
- KU-55933 | A101D: 160; SK-MEL-5: 29.4; SK-MEL-28: 45.5
- NVP-TAE684 | A101D: 69.5; SK-MEL-5: 112; SK-MEL-28: 78.2
- vorinostat | A101D: 272; SK-MEL-5: 112; SK-MEL-28: 57.8
- GSK0660 | A101D: 284; SK-MEL-5: 196; SK-MEL-28: 71.9
- etoposide | SK-MEL-5: 166; SK-MEL-28: 123
- pioglitazone | A101D: 55.2; SK-MEL-5: 31.4; SK-MEL-28: 227
- tamatinib | A101D: 1110; SK-MEL-5: 101; SK-MEL-28: 89.8
- KU-0063794 | A101D: 103; SK-MEL-5: 285; SK-MEL-28: 84.6
- lapatinib | A101D: 82.6; SK-MEL-5: 377; SK-MEL-28: 17.7
- everolimus | A101D: 194; SK-MEL-5: 363; SK-MEL-28: 119
- bortezomib | A101D: 935; SK-MEL-5: 3030; SK-MEL-28: 322
- NVP-BEZ235 | A101D: 94.6; SK-MEL-5: 105; SK-MEL-28: 61.5
- FK866 | A101D: 267; SK-MEL-5: 25.9; SK-MEL-28: 22.7
- palbociclib | A101D: 117; SK-MEL-5: 92.9; SK-MEL-28: 45.8
- L-779450 | A101D: 306; SK-MEL-5: 331; SK-MEL-28: 102
- MK-2206 | A101D: 98.1; SK-MEL-5: 152; SK-MEL-28: 124
- enzastaurin | A101D: 67.7; SK-MEL-5: 64.0; SK-MEL-28: 65.6
- PF-04217903 | A101D: 112; SK-MEL-5: 270; SK-MEL-28: 99.3
- perifosine | A101D: 92.3; SK-MEL-5: 94.1; SK-MEL-28: 66.6
- U73122 | A101D: 217; SK-MEL-5: 77.6; SK-MEL-28: 162

Once more, the final 3:

Partner	A101D	SK-MEL-5	SK-MEL-28
PF-04217903	112	270	99.3
perifosine	92.3	94.1	66.6
U73122	217	77.6	162